Measured data: PubChem BioAssay AID652243 (Drosophila RNAi Screening Center, 2013)
The deposit covers about 24,000 reagents; below is a random part of those that have a named target and a result. Over the whole deposit, 246 (1%) got an active call. 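Plates not normalised; calls are printed but the firefly/Renilla ratio behind them is not deposited; fold cut for lowering reported inconsistently.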 The raw values are shown without normalisation. Reagents against one gene are numbered here. Names joined by + are all predicted targets of the reagent. The record does not give: the amount of reagent.

Test: 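Fly regulators of androgen-dependent reporter output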 (primary screen)
System: Drosophila S2R+ cells
Reagent: long dsRNA against Drosophila genes
Time to read-out: 72 h (48 h, then 24 h hormone)
Conditions: synthetic androgen R1881 at 10 nM for 24 h
Detection: 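Firefly light from an androgen-responsive reporter and Renilla control light per well, raw and unnormalised, for each of two replicates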
Direction: firefly reporter light: higher = more light from androgen-responsive reporter; Renilla control light: higher = more constitutive control signal (cell number, transfection)
Call rule: 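Across duplicate plates, a knock-down whose log firefly/Renilla ratio shifted a set fold down or up from the GFP/LacZ control mean was a hit; the downward cut appears as both 1.5 and 3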
Calls: active = hit: reporter lowered or raised; inactive = no hit

CG2127 → firefly reporter light, replicate 1: 3.55e5; firefly reporter light, replicate 2: 4.22e5; Renilla control light, replicate 1: 2.00e6; Renilla control light, replicate 2: 1.78e6; Call: inactive
Pde1c (Phosphodiesterase 1c) #1 → firefly reporter light, replicate 1: 2.44e5; firefly reporter light, replicate 2: 2.76e5; Renilla control light, replicate 1: 1.94e6; Renilla control light, replicate 2: 1.88e6; Call: inactive
Pde1c (Phosphodiesterase 1c) #2 → firefly reporter light, replicate 1: 1.88e5; firefly reporter light, replicate 2: 2.32e5; Renilla control light, replicate 1: 1.45e6; Renilla control light, replicate 2: 1.78e6; Call: inactive
Pde1c (Phosphodiesterase 1c) #3 → firefly reporter light, replicate 1: 1.40e5; firefly reporter light, replicate 2: 1.49e5; Renilla control light, replicate 1: 1.29e6; Renilla control light, replicate 2: 1.19e6; Call: inactive
Pde1c (Phosphodiesterase 1c) #4 → firefly reporter light, replicate 1: 2.78e5; firefly reporter light, replicate 2: 2.35e5; Renilla control light, replicate 1: 1.78e6; Renilla control light, replicate 2: 2.12e6; Call: inactive
Pde1c (Phosphodiesterase 1c) #5 → firefly reporter light, replicate 1: 1.60e5; firefly reporter light, replicate 2: 1.92e5; Renilla control light, replicate 1: 1.23e6; Renilla control light, replicate 2: 1.14e6; Call: inactive
Pde1c (Phosphodiesterase 1c) #6 → firefly reporter light, replicate 1: 2.26e5; firefly reporter light, replicate 2: 2.75e5; Renilla control light, replicate 1: 1.34e6; Renilla control light, replicate 2: 1.47e6; Call: inactive
Pde1c (Phosphodiesterase 1c) #7 → firefly reporter light, replicate 1: 2.94e5; firefly reporter light, replicate 2: 3.58e5; Renilla control light, replicate 1: 9.18e5; Renilla control light, replicate 2: 6.70e5; Call: inactive
CG11248 → firefly reporter light, replicate 1: 55348; firefly reporter light, replicate 2: 77979; Renilla control light, replicate 1: 2.94e5; Renilla control light, replicate 2: 5.03e5; Call: inactive

2 entries from above, showing only “firefly reporter light, replicate 2”.
Pde1c (Phosphodiesterase 1c) #5: 1.92e5
Pde1c (Phosphodiesterase 1c) #6: 2.75e5

Further reagents follow.
tkv (thickveins) #1 → firefly reporter light, replicate 1: 9.32e5; firefly reporter light, replicate 2: 1.23e6; Renilla control light, replicate 1: 1.54e6; Renilla control light, replicate 2: 2.29e6; Call: inactive
tkv (thickveins) #2 → firefly reporter light, replicate 1: 6.57e5; firefly reporter light, replicate 2: 6.65e5; Renilla control light, replicate 1: 1.39e6; Renilla control light, replicate 2: 1.47e6; Call: inactive
tkv (thickveins) #3 → firefly reporter light, replicate 1: 2.64e5; firefly reporter light, replicate 2: 3.93e5; Renilla control light, replicate 1: 5.95e5; Renilla control light, replicate 2: 7.11e5; Call: inactive
CG15332 #1 → firefly reporter light, replicate 1: 2.22e5; firefly reporter light, replicate 2: 2.02e5; Renilla control light, replicate 1: 1.72e6; Renilla control light, replicate 2: 2.05e6; Call: inactive
CG15332 #2 → firefly reporter light, replicate 1: 8.38e5; firefly reporter light, replicate 2: 8.66e5; Renilla control light, replicate 1: 8.37e5; Renilla control light, replicate 2: 8.59e5; Call: inactive
Noc2 (Nucleolar complex protein 2) → firefly reporter light, replicate 1: 8.29e5; firefly reporter light, replicate 2: 6.95e5; Renilla control light, replicate 1: 2.20e6; Renilla control light, replicate 2: 1.98e6; Call: inactive
mthl3 + mthl4 → firefly reporter light, replicate 1: 2.38e5; firefly reporter light, replicate 2: 2.28e5; Renilla control light, replicate 1: 6.18e5; Renilla control light, replicate 2: 4.75e5; Call: inactive
CG14958 → firefly reporter light, replicate 1: 97712; firefly reporter light, replicate 2: 1.07e5; Renilla control light, replicate 1: 1.10e6; Renilla control light, replicate 2: 1.04e6; Call: inactive
CG6231 → firefly reporter light, replicate 1: 2.83e5; firefly reporter light, replicate 2: 3.00e5; Renilla control light, replicate 1: 2.99e6; Renilla control light, replicate 2: 3.45e6; Call: inactive
Kr (Kruppel) → firefly reporter light, replicate 1: 2.55e5; firefly reporter light, replicate 2: 2.04e5; Renilla control light, replicate 1: 1.26e6; Renilla control light, replicate 2: 7.70e5; Call: inactive
CG15754 #1 → firefly reporter light, replicate 1: 3.38e5; firefly reporter light, replicate 2: 5.07e5; Renilla control light, replicate 1: 1.98e6; Renilla control light, replicate 2: 2.99e6; Call: inactive
CG15754 #2 → firefly reporter light, replicate 1: 7.32e5; firefly reporter light, replicate 2: 7.06e5; Renilla control light, replicate 1: 7.19e5; Renilla control light, replicate 2: 6.01e5; Call: inactive
